Some of the results follow.
Molecular target: OsWRKY34 (Oryza sativa, UniProt Q0JBA9 1-250)
Experiment: protein-binding microarray (RPBM); PBS, 2% BSA, 51.3 ng/ul salmon testes DNA, 50 uM zinc acetate, 200 nM TF, 25 C, 1 h; high values mean tight binding
Conditions: protein: recombinant; tags: N-terminal polyhistidine and DsRed monomer fusion (pET32a); label: CyDye5-dUTP incorporated in the synthesized complementary strand; 3' TTTTT single-stranded linker to array surface; dsDNA, one strand shown
Outline: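 An Axon 4000B scanner gave the binding signal as per-feature fluorescence intensity in arbitrary units. This followed washing of a custom Agilent array that had been incubated for 1 h at 25 °C with 200 nM protein in PBS, 2% BSA, salmon testes DNA and 50 µM zinc acetate. The proteins were transcription factors fused at the N-terminus to polyhistidine and DsRed, expressed in E. coli BL21-CodonPlus and purified on Ni–NTA.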

Sequences of proteins named here, by UniProt entry; tags and fusion partners are left off.
UniProt Q0JBA9, entry or part of it: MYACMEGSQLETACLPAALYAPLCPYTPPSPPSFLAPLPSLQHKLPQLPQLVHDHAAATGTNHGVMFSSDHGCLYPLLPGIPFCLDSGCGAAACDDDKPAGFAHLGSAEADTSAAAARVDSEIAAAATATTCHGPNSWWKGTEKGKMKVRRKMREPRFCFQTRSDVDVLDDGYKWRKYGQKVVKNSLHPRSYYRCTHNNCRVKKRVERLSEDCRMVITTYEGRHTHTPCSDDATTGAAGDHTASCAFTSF

Sequence	binding signal
GCTCCTTTTGTTGGGAATATTTGTAATTCTTGGCGGAATTCGGAGTCACCTAGTGCAG	13100 fluorescence intensity (a.u.)
AAGTACTGATAAACTCTGATGTTTTATTATTTTTTTTCTTCGGAGTCACCTAGTGCAG	10400 fluorescence intensity (a.u.)
GCCAACTTGCGCTAATCTTACCTCTCGGTCACATGCAACACGGAGTCACCTAGTGCAG	9560 fluorescence intensity (a.u.)
TCCGTCAGCCACCGAATTTGTTTGCCTCTCTCAGCATCAGCGGAGTCACCTAGTGCAG	8050 fluorescence intensity (a.u.)
AAGTTGCATCCGGTGCATTTCCTGCGTACCTTAAATTTCTCGGAGTCACCTAGTGCAG	8110 fluorescence intensity (a.u.)
GCCCATATATTTGCCCAAAAATCAGCCCATATCGATTTTTCGGAGTCACCTAGTGCAG	8190 fluorescence intensity (a.u.)
CTCAAGTGTTTCTGCCATTTTGACTCGAACCCATCCACGGCGGAGTCACCTAGTGCAG	8180 fluorescence intensity (a.u.)
CCATGTTGACCGCCACCTCACCTCCTCCCCTTCCCTTCCCCGGAGTCACCTAGTGCAG	9930 fluorescence intensity (a.u.)
TATCCGGCCATCCTCCCCATCCATCCGCCGTGCTGCTGCCCGGAGTCACCTAGTGCAG	8290 fluorescence intensity (a.u.)
TTTTTCCAAAATTTTAACTGTTTTTTTTCGTCGAGGGTAACGGAGTCACCTAGTGCAG	8610 fluorescence intensity (a.u.)
AATTGCACACATAGTTACCTACCTTACCTACCTCTTCAGGCGGAGTCACCTAGTGCAG	8250 fluorescence intensity (a.u.)
CCTACCTACGCTGGTTTAATTAATTCATAGCTAGCTCGCCCGGAGTCACCTAGTGCAG	8620 fluorescence intensity (a.u.)
CTGTTCGTATTTGCCAACTATTGTGTTTATGCGCATATTTCGGAGTCACCTAGTGCAG	11900 fluorescence intensity (a.u.)
GCCGCCGTCTCGTCGCCCTTCCTCTCTCGCTCATTTTCGCCGGAGTCACCTAGTGCAG	8350 fluorescence intensity (a.u.)
GGTTTCTTACTGTTTACGTTGTTTGCACCTGCAGCGGTCGCGGAGTCACCTAGTGCAG	9870 fluorescence intensity (a.u.)
TTTCTATAAACTTGGTCAAACTTAAAGCAGTTTGACTTTGCGGAGTCACCTAGTGCAG	11900 fluorescence intensity (a.u.)
CTTCCTTCCTAACGTATCGCCCACATTCCTCCACGTCTCCCGGAGTCACCTAGTGCAG	8980 fluorescence intensity (a.u.)
TGTGGGACGATGGGGAGGTGTGGGGACGCACGCGGGGCGACGGAGTCACCTAGTGCAG	10200 fluorescence intensity (a.u.)
CAGAGCGACTTCCCCAATCCATCATCCCGTCTCCGTCCTCCGGAGTCACCTAGTGCAG	8830 fluorescence intensity (a.u.)
GCTTAATCACATTGTTGCGCCCCTTCTTATCCTCTTCTTGCGGAGTCACCTAGTGCAG	10600 fluorescence intensity (a.u.)
TTGGGTTCAGGCTTTAATTTTTTTTCAATTCATCAGGCGTCGGAGTCACCTAGTGCAG	8740 fluorescence intensity (a.u.)
TTGCGTGTTGTTATTACTCCTTGGATCGACTCGGCCAGCACGGAGTCACCTAGTGCAG	9930 fluorescence intensity (a.u.)
TTCCTTTAATATGCACCCACCAGCTGTCAAGTCAGCGCCTCGGAGTCACCTAGTGCAG	8050 fluorescence intensity (a.u.)
TTAAGTGGGTGGTGGAGTCGGAGGGGACTCGGCATGGTTGCGGAGTCACCTAGTGCAG	9900 fluorescence intensity (a.u.)
ATTTTGGCCTTTTTCTTTTACTTGGTCAAGTTTGGTTATACGGAGTCACCTAGTGCAG	10200 fluorescence intensity (a.u.)
TGAGAGAAGCACCCATGGAACACATCAGGATACACTGTTTCGGAGTCACCTAGTGCAG	8230 fluorescence intensity (a.u.)
ATATATATATATATATATATATCCATGGCTGAAAAATACCCGGAGTCACCTAGTGCAG	9920 fluorescence intensity (a.u.)

A stretch taken from the entries so far:
Sequence	binding signal
GCTTAATCACATTGTTGCGCCCCTTCTTATCCTCTTCTTGCGGAGTCACCTAGTGCAG	10600 fluorescence intensity (a.u.)
TTGGGTTCAGGCTTTAATTTTTTTTCAATTCATCAGGCGTCGGAGTCACCTAGTGCAG	8740 fluorescence intensity (a.u.)
TTGCGTGTTGTTATTACTCCTTGGATCGACTCGGCCAGCACGGAGTCACCTAGTGCAG	9930 fluorescence intensity (a.u.)

(further entries)

Sequence	binding signal
GGCCTTAGTGCCAGAACCTGTTTATTTCTTCTGTTTTATACGGAGTCACCTAGTGCAG	9420 fluorescence intensity (a.u.)
CATGTTTTGGATACACTCCACGTTGATCTAGTCTCATATGCGGAGTCACCTAGTGCAG	8730 fluorescence intensity (a.u.)
GTCTAATTTGGTCCATTTCTTCAATCCCCGCCATTAATACCGGAGTCACCTAGTGCAG	9340 fluorescence intensity (a.u.)
GTAGTTTGGGCTTCGTGGAATTTAGCCTGCTCATTGCAACCGGAGTCACCTAGTGCAG	8660 fluorescence intensity (a.u.)
TTCACTAAACGGAACATGGTTTGCTTGCTTGAACGGTCATCGGAGTCACCTAGTGCAG	9160 fluorescence intensity (a.u.)
CCTCGTCAACCGCATCTTTCCCTTTTCGCTTCTCTCGAGACGGAGTCACCTAGTGCAG	10400 fluorescence intensity (a.u.)
ACCCTTCTTTCAGAATGCATGAGGCTCGAGCACTTGTCTTCGGAGTCACCTAGTGCAG	8140 fluorescence intensity (a.u.)
CTCCTGTCTCTTTTTCTATATTCCTTATTTATAATTCCGACGGAGTCACCTAGTGCAG	9920 fluorescence intensity (a.u.)
GTAGCCGCTTCCTGCCTTCCTTCCCCTTGCTCTTGCATTTCGGAGTCACCTAGTGCAG	8340 fluorescence intensity (a.u.)
CCTTTAAGTCTATCTCTCTCATTCAATTTCTGCATTTTTCCGGAGTCACCTAGTGCAG	9270 fluorescence intensity (a.u.)
GTGCTATCTGTTCTCATATCACTACTGATCTTTGCTGGGTCGGAGTCACCTAGTGCAG	8440 fluorescence intensity (a.u.)
GCGCGCTTCCGTCCACTCGCACTGATCCTTCCGGCGGAGCCGGAGTCACCTAGTGCAG	9390 fluorescence intensity (a.u.)
AAATGCCTGTTCACTTTGATGCCATTTTCAACCTTACCAACGGAGTCACCTAGTGCAG	8100 fluorescence intensity (a.u.)
TTTTCGAGCTCTTCCAACGTCACACCTCTTATCATTTTGACGGAGTCACCTAGTGCAG	10400 fluorescence intensity (a.u.)
ATCCTTTATACATGACTTGCTTATCTTATAACTGAGCAAACGGAGTCACCTAGTGCAG	8050 fluorescence intensity (a.u.)
TTTATTTGGGTCATTTCTTCATCCGACAAAGCGATTTGTACGGAGTCACCTAGTGCAG	8080 fluorescence intensity (a.u.)
GGCAGCCCACAGCCCATAGACCACACCGCACATCGTCTTCCGGAGTCACCTAGTGCAG	8590 fluorescence intensity (a.u.)
GATCGAATCCGACCTTAATTTTCACCTGCTCGCTGATCTCCGGAGTCACCTAGTGCAG	8600 fluorescence intensity (a.u.)
AGAGAGACATTATAATTTGCCGTTGCTCATTTTCTATTTTCGGAGTCACCTAGTGCAG	10200 fluorescence intensity (a.u.)
CACCCCGTATCAACACGCGTCGCTCTGCCGTCCGGCTCTCCGGAGTCACCTAGTGCAG	8400 fluorescence intensity (a.u.)
AAAAACTCGCTGGCTTCCACCGACCGCTTCACTCGCAGCACGGAGTCACCTAGTGCAG	8180 fluorescence intensity (a.u.)
GCCATTTCAGTGACCATACACACTAGTACTCCACTACACACGGAGTCACCTAGTGCAG	8070 fluorescence intensity (a.u.)
TTATAAATATTTAATGCAGTTGATTTTGATCATAAAGTTTCGGAGTCACCTAGTGCAG	8790 fluorescence intensity (a.u.)
AATCCATGAAATCCTCGTCGTCTTGCCGTGTTTGGTTGGGCGGAGTCACCTAGTGCAG	11000 fluorescence intensity (a.u.)
TACTCATCTCTCTCAACACGTAATTTGTTCTGTTTGGTGACGGAGTCACCTAGTGCAG	9570 fluorescence intensity (a.u.)
GTTCACTACATCTGCTGCTGCTGGTCGTCGTCGTTGTCCTCGGAGTCACCTAGTGCAG	8200 fluorescence intensity (a.u.)
CTTAGTCCGATTCCGAGTAGTTCGATCGTCGCGTGACTCCCGGAGTCACCTAGTGCAG	9020 fluorescence intensity (a.u.)

Source: publication PMC7819943, “Rice protein-binding microarrays: a tool to detect cis-acting elements near promoter regions in rice”
